PubChem BioAssay AID624297 (National Center for Advancing Translational Sciences (NCATS), 2012)
About 6,200 (1.8%) of roughly 340,000 compounds were called active. The inconclusive results got no clear call from the source; some entries with a clear call stand among them for comparison. Calls follow the shape of the dose curve; as a rule, active = well fitted activation curve with a large enough effect; inconclusive = small, poorly fitted or top-dose-only effect; inactive = no such curve, though single readings can be large or run the other way. Potencies of inconclusive entries are doubtful fits and often do not repeat.

assay: A quantitative high throughput screen for small molecules that induce DNA re-replication in SW480 colon adenocarcinoma cells.; also: nearly all actives have a fitted effect of over 55% in size; as to re-replication activation: % of control where 0% means no effect; details: Hoechst DNA content imaging, 48 h; re-replication activation: at 46.1 µM (top of the series) unless noted
Method in brief: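 DNA re-replication was detected as more nuclei of elevated Hoechst intensity after 48 hr exposure to compound (23 nL pinned per well of 250 cells).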
Potency is read from the fitted curve at half-maximal effect.

Row | SMILES | Potency | re-replication activation
1 | CC1(C)Cc2ccccc2-c2nnc(SCC(=O)N3CCN(c4ccccc4)CC3)n21 | inactive | 
2 | O=[N+]([O-])c1cnc(Nc2ccc(Cl)cn2)c([N+](=O)[O-])c1 | inconclusive: 29.1 µM [activator, single point] | 
3 | Cc1ccc(-c2nn(-c3cc(Cl)ccc3[N+](=O)[O-])c(=O)c3ccccc23)cc1C | inconclusive: 29.1 µM [activator, single point] | 
4 | CCN(CC)c1ccc(/C=C/c2cccc[n+]2C)c(OC)c1 | active: 18.4 µM | 
5 | CC(C)c1cc(Br)ccc1OCCN1C(=O)NC(C)(C)C1=O | inconclusive: 0.126 µM [activator, partial curve, poor fit] | 
6 | COC1=C(C)C(=O)C2=C(C1=O)C1C3CC4=C(C(=O)C(OC)=C(C)C4=O)C(CNC(=O)C(C)=O)N3C(C#N)C(C2)N1C (configuration not stated) | inconclusive: 0.184 µM [activator, full curve, poor fit] | 
7 | Cc1ccn(-c2ccc([N+](=O)[O-])cc2)n1 | active: 20.6 µM | 
8 | Cc1ccc(CCNS(=O)(=O)c2ccc3c(c2)NC(=O)C(C)C(=O)N3)cc1 (configuration not stated) | inactive | 
9 | Oc1ccc(Cl)cc1N=Cc1sc2ccccc2c1Cl | active: 20.6 µM | 
10 | COC(=O)CC(c1ccc(OC)c(OC)c1)c1ccc(OC)c(OC)c1 | inconclusive: 0.13 µM [activator, single point] | 
11 | CCn1c(=N)n(CC(=O)c2ccco2)c2ccccc21 | inconclusive: 29.1 µM [activator, single point] | 
12 | Cc1ccnc(NC(=O)c2cccc(NC(=O)COc3ccccc3)c2)c1 | inconclusive: 23.1 µM [activator, partial curve, poor fit] | 
13 | COc1ccccc1CNC(=O)[C@H](C)NC(=O)[C@@H]1Cc2ccccc2CN1 | inconclusive: 29.1 µM [activator, single point] | 
14 | COc1ccc(S(=O)(=O)N2CCc3ccccc32)cc1C(=O)Nc1ccc(NC(C)=O)cc1 | inconclusive: 16.4 µM [activator, partial curve, poor fit] | 
15 | C/C(=N\Nc1nc2c(s1)CCCC2)c1ccc(Cl)cc1 | inconclusive: 29.1 µM [activator, single point] | 
16 | CNC(=O)CSc1nc(SC)ns1 | inconclusive: 32.6 µM [activator, partial curve, poor fit] | 
17 | COc1ccc(CCc2nnc(NS(C)(=O)=O)s2)cc1 | inactive | 
18 | O=C(CCS(=O)(=O)Cc1ccccc1)Nc1ncc([N+](=O)[O-])s1 | active: 23.1 µM | 
19 | O=C(Nc1ccc2[nH]ccc2c1)c1ccc(F)cc1 | inactive | 
20 | CN1CCC[C@@H](CC2c3ccccc3Sc3ccccc32)C1 | inconclusive: 12.8 µM [activator, single point] | 
21 | O=C(OCC(=O)N1CCc2ccccc21)[C@@H]1CCCN1S(=O)(=O)c1ccccc1F | inconclusive: 0.103 µM [activator, full curve, poor fit] | 
22 | COc1ccc(N2CC(C(=O)N[C@@H](C)C(=O)NC3CCCC3)CC2=O)cc1 (some centres not stated) | inconclusive: 29.1 µM [activator, single point] | 
23 | COc1ccc(NC(=O)CSc2nc3nc(-c4cccs4)cc(C(F)(F)F)c3c(=O)[nH]2)c(OC)c1 | inactive | 

Single entries from the results shown.
`COc1ccc(NC(=O)CSc2nc3nc(-c4cccs4)cc(C(F)(F)F)c3c(=O)[nH]2)c(OC)c1` – Potency: inactive
`CCN(CC)c1ccc(/C=C/c2cccc[n+]2C)c(OC)c1` – Potency: active: 18.4 µM
`CN1CCC[C@@H](CC2c3ccccc3Sc3ccccc32)C1` – Potency: inconclusive: 12.8 µM [activator, single point]
`Oc1ccc(Cl)cc1N=Cc1sc2ccccc2c1Cl` – Potency: active: 20.6 µM

Later entries.

Row | SMILES | Potency | re-replication activation
24 | COc1cc(OC)c(CN2CCN(c3ccc(F)cc3)CC2)cc1Br | inactive | 
25 | CCOC(=O)N1CCC(NC(=O)c2ccc(CS(=O)c3cccc(C)c3)o2)CC1 (configuration not stated) | inconclusive: 29.1 µM [activator, single point] | 
26 | COc1ccc2c(c1)OC[C@H]1[C@H]2N2C(=O)c3cc(Cl)ccc3NC(=O)[C@@]2(C)[C@H]1c1ccccc1 | inconclusive: 29.1 µM [activator, single point] | 
27 | C=CCN1C(=O)/C(=C2/Sc3ccc(OC)cc3N2C)SC1=Nc1ccccc1 | active: 7.31 µM | 
28 | O=c1[nH]c(/C=C/c2cccc3ccccc23)nc2ccccc12 | inconclusive: 23.1 µM [activator, single point] | 
29 | NC(=O)c1cc(Br)cc2c3c([nH]c12)CCCC3 | inconclusive: 23.1 µM [activator, single point] | 
30 | COc1ccc(-c2[nH]c(-c3ccc4c(c3)OCO4)nc2-c2ccccc2)cc1 | inconclusive: 23.1 µM [activator, partial curve, poor fit] | 
31 | O=C(N/N=C/c1cccc2nccnc12)c1ccncc1 | inconclusive: 18.4 µM [activator, single point] | 
32 | O=C(CN1C(=O)S/C(=C\c2ccccc2Cl)C1=O)NCCCn1ccnc1 | inactive | 
33 | FC(F)(F)c1nnc2c(Sc3ccccc3)nc3ccc(Cl)cc3n12 | inconclusive: 5.8 µM [activator, full curve, poor fit] | 
34 | COc1ccc(NC(=O)c2cc3c(=O)n(C)c4ccccc4c3s2)cc1OC | inconclusive: 3.26 µM [activator, full curve] | 
35 | O=c1cc(SCc2ccc(Cl)cc2Cl)nc[nH]1 | inactive | 
36 | CCCCc1ccc(NC(=O)Nc2cnccn2)cc1 | inconclusive: 18.4 µM [activator, single point] | 
37 | CC(C)(C)c1nc2scc(-c3ccc(Cl)cc3)c2c(=O)o1 |  | inactive: -9.13% [at 9.22 µM]
38 | COC(=O)c1cn(C(=O)c2ccc(OC)cc2)c2ccccc12 | active: 2.31 µM | 
39 | O=C(CN1CCN(S(=O)(=O)c2ccc(F)cc2)CC1)Nc1ccc(Cl)c(C(F)(F)F)c1 | inconclusive: 23.1 µM [activator, partial curve, poor fit] | 
40 | COc1cccc(CN(CC(=O)NCc2ccccc2)S(=O)(=O)CCl)c1 | inactive | 
41 | COc1ccc(-c2cn[nH]c2N)cc1OC | inconclusive: 29.1 µM [activator, single point] | 
42 | CCCNC(=O)c1c(N)n(-c2ccc(S(N)(=O)=O)cc2)c2nc3ccccc3nc12 | active: 0.82 µM | 
43 | CNc1nnc(SCC(=O)c2c(N)n(C3CC3)c(=O)[nH]c2=O)s1 | inactive | 
44 | COc1ccc2c(C#N)c3ccccn3c2c1 | inconclusive: 10.3 µM [activator, partial curve] | 
45 | COc1ccc(C(c2c(C)[nH]n(C(N)=S)c2=O)C(C#N)C#N)cc1 (configuration not stated) | inconclusive: 29.1 µM [activator, single point] | 
46 | CN(CC(=O)Nc1ccc(Cl)c(C(F)(F)F)c1)CC(=O)NC1CCCCC1 | inconclusive: 0.0046 µM [activator, full curve, poor fit] | 

Row | SMILES | Potency | re-replication activation
47 | C=CCC[C@@H](Cc1ccc(F)cc1)C(=O)OC[C@H](Cc1c[nH]c2ccccc12)NC(=O)[C@H](CC=C)CC(=O)N(CCO)Cc1ccccc1 | inconclusive: 20.6 µM [activator, single point] | 
48 | CCOC(=O)/C(C#N)=C1\C(=O)N(Cc2ccccc2)c2ccccc21 | inconclusive: 18.4 µM [activator, single point] | 
49 | Cc1ccc(S(=O)(=O)N(Cc2ccccc2)c2ccccc2C(=O)Nc2ccccc2C(=O)NCc2ccco2)cc1 | inactive | 
50 | CN(C)CCC(=O)C(Cc1ccccc1)c1ccccc1 (configuration not stated) | inconclusive: 18.4 µM [activator, single point] | 
51 | CS(=O)(=O)c1cccc(S(=O)(=O)N2CCN(c3ccccn3)CC2)c1 |  | inconclusive: 10.5% [activator]
52 | CS(=O)Cc1cc(Sc2ccccc2)nc(-c2cccnc2)n1 (configuration not stated) | inconclusive: 6.51 µM [activator, single point] | 
53 | CCC1CN(C(=O)N2CCC(C(=O)NCc3ccco3)CC2)c2ccccc2O1 (configuration not stated) | inconclusive: 3.66 µM [activator, full curve, poor fit] | 
54 | CC(C)N(C(=O)CSc1nc(COc2ccccc2)nc2ccccc12)C(C)C | inconclusive: 9.2 µM [activator, partial curve, poor fit] | 
55 | CCn1c(C)c(Br)c(=O)c(C(=O)OC)c1-c1ccc(Cl)cc1 | inconclusive: 23.1 µM [activator, single point] | 
56 | O=C(CCc1cn(Cc2ccc(F)cc2)c2ccccc12)N1CCOCC1 | inactive | 
57 | C=C(C)Cn1c(-c2ccccc2)nc2ccccc21 | inactive | 
58 | CSc1ccc(CN2CCC(CO)(CCOc3ccccc3)CC2)cc1 | inconclusive: 29.1 µM [activator, single point] | 
59 | CN(C)c1ccc(C2CNC(c3ccc(Cl)c([N+](=O)[O-])c3)c3[nH]c4ccccc4c32)cc1 (configuration not stated) | active: 14.6 µM | 
60 | CNC(=S)Nc1ccc(N2CCCC2)c(S(=O)(=O)Nc2ccc(OC)cc2)c1 |  | inconclusive: 125% [activator]
61 | CC1CCCN(S(=O)(=O)c2ccc(NC(=O)CNC3CCCC3)cc2)C1 (configuration not stated) | inconclusive: 14.6 µM [activator, partial curve, poor fit] | 
62 | N=C1C(c2nc3ccccc3[nH]2)=C(O)CN1C1CCCCC1 | inactive | 
63 | CC1(C)CC(=O)c2c(O)c(-c3ccccc3)c(=O)n(-c3ccccc3)c2C1 | inactive | 
64 | Cc1ccc(CNC(=O)[C@H](C)NC(=O)C2CCN(C(=O)[C@@H](N)CC(C)C)CC2)cc1 | inconclusive: 29.1 µM [activator, partial curve, poor fit] | 
65 | O=C1C(Cl)=C(N2CCN(c3ccccc3[N+](=O)[O-])CC2)C(=O)c2ccccc21 | active: 16.4 µM | 
66 | Cc1ccc(S(=O)(=O)N2CCN(C(=O)COC(=O)COc3ccccc3C(C)C)CC2)c(C)c1 | inconclusive: 2.91 µM [activator, full curve, poor fit] | 
67 | COc1cccc2sc3cc(NCC[C@@H]4CCCN4C)ccc3c(=O)c12 | inconclusive: 25.9 µM [activator, partial curve, poor fit] | 
